Source: PubChem BioAssay AID1259270 (Sanger Institute, 2017)
Test: 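Follow-up of kinome hits for synergy with three anchor drugs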 (follow-up of hits). Cell system: human SNU-C5 colorectal cancer cells. Reagent: single siRNA against human genes. Conditions: anchor drugs added after knock-down: BYL719 1 µM, cetuximab 5 µg/ml or trametinib 10 nM, or DMSO vehicle. Detection: 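Replicate survival relative to non-targeting pool 2, then averaged; anchor drug added after silencing; synergy score weighs combination against each single treatment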. Scale: synergy score with BYL719 and synergy score with cetuximab and synergy score with trametinib: higher = stronger synergy (extra killing) with the drug. Active means: 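Synergy with at least one drug when any of the three synergy scores is over 0.10; otherwise no synergy with any drug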. Calls: active = synergy with at least one drug; inactive = no synergy with any drug.
The deposit covers 160 reagents; shown is an unselected part. Over the whole deposit, 76 (48%) are marked active. 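Four separate siRNAs per gene; calls are per siRNA in one cell line, looser than gene-level validation across several lines.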 The numbers tell different reagents against one gene apart. Not all columns of the deposit are shown. The record does not give: the amount of reagent, the time to read-out.

MAPK4 #1
- synergy score with BYL719: 0.1
- synergy score with cetuximab: 0.265
- synergy score with trametinib: -0.109
- outcome: active

MAPK4 #2
- synergy score with BYL719: 0.109
- synergy score with cetuximab: 0.0791
- synergy score with trametinib: 0.336
- outcome: active

MAPK4 #3
- synergy score with BYL719: -0.0615
- synergy score with cetuximab: -0.116
- synergy score with trametinib: 0.0276
- outcome: inactive

MAPK4 #4
- synergy score with BYL719: 0.0385
- synergy score with cetuximab: -0.00932
- synergy score with trametinib: -0.00766
- outcome: inactive

CRIM1 #1
- synergy score with BYL719: 0.0172
- synergy score with cetuximab: -0.0194
- synergy score with trametinib: -0.0583
- outcome: inactive

CRIM1 #2
- synergy score with BYL719: -0.147
- synergy score with cetuximab: -0.177
- synergy score with trametinib: -0.182
- outcome: inactive

CRIM1 #3
- synergy score with BYL719: 0.0746
- synergy score with cetuximab: -0.0084
- synergy score with trametinib: 0.000368
- outcome: inactive

CRIM1 #4
- synergy score with BYL719: -0.328
- synergy score with cetuximab: -0.236
- synergy score with trametinib: 0.124
- outcome: active

ACVR1 #1
- synergy score with BYL719: -0.000732
- synergy score with cetuximab: -0.0328
- synergy score with trametinib: 0.0216
- outcome: inactive

ACVR1 #2
- synergy score with BYL719: -0.00106
- synergy score with cetuximab: -0.298
- synergy score with trametinib: 0.0638
- outcome: inactive

ACVR1 #3
- synergy score with BYL719: -0.0986
- synergy score with cetuximab: -0.0892
- synergy score with trametinib: 0.134
- outcome: active

ACVR1 #4
- synergy score with BYL719: -0.107
- synergy score with cetuximab: 0.0595
- synergy score with trametinib: 0.13
- outcome: active

IRAK1 #1
- synergy score with BYL719: 0.112
- synergy score with cetuximab: 0.17
- synergy score with trametinib: 0.683
- outcome: active

IRAK1 #2
- synergy score with BYL719: 0.0729
- synergy score with cetuximab: 0.129
- synergy score with trametinib: 0.166
- outcome: active

IRAK1 #3
- synergy score with BYL719: 0.113
- synergy score with cetuximab: -0.115
- synergy score with trametinib: -0.231
- outcome: active

IRAK1 #4
- synergy score with BYL719: 0.463
- synergy score with cetuximab: 0.0201
- synergy score with trametinib: 0.0931
- outcome: active

RPS6KA4 #1
- synergy score with BYL719: -0.266
- synergy score with cetuximab: -0.0524
- synergy score with trametinib: -0.0802
- outcome: inactive

RPS6KA4 #2
- synergy score with BYL719: 0.132
- synergy score with cetuximab: 0.19
- synergy score with trametinib: 0.187
- outcome: active

RPS6KA4 #3
- synergy score with BYL719: -0.0683
- synergy score with cetuximab: -0.0208
- synergy score with trametinib: -0.0532
- outcome: inactive

RPS6KA4 #4
- synergy score with BYL719: 0.0789
- synergy score with cetuximab: 0.0935
- synergy score with trametinib: 0.0146
- outcome: inactive

MARK3 #1
- synergy score with BYL719: -0.187
- synergy score with cetuximab: -0.0245
- synergy score with trametinib: 0.122
- outcome: active

MARK3 #2
- synergy score with BYL719: 0.087
- synergy score with cetuximab: -0.000982
- synergy score with trametinib: 0.147
- outcome: active

MARK3 #3
- synergy score with BYL719: -0.15
- synergy score with cetuximab: -0.0737
- synergy score with trametinib: -0.326
- outcome: inactive

MARK3 #4
- synergy score with BYL719: 0.0129
- synergy score with cetuximab: -0.051
- synergy score with trametinib: 0.244
- outcome: active
